Experimental data as given in PMC5467238.
Results are given in words; binding and its absence hold for the method and conditions named. Binding seen in cells or lysates may run through a third protein. A yes stands for co-enrichment or nearness to the bait. Other partners may have been found. Sequences can lack the tags named with a protein.

The chains behind the UniProt entries cited, without tags or fusion partners.
UniProt P68104: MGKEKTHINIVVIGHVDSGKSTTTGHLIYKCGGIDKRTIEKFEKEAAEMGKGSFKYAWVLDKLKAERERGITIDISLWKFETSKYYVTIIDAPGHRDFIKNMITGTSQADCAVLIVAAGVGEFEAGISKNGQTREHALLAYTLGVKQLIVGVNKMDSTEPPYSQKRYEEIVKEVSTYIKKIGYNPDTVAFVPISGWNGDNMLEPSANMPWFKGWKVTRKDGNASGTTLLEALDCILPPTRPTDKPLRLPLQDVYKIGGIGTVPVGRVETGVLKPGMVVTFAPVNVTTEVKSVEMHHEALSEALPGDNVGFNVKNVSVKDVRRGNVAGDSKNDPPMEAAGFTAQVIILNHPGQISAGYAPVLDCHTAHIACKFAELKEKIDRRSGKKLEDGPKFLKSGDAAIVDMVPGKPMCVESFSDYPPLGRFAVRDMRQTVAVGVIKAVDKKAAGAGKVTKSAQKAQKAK

Biological target: T1, FLAG-CTIF-WT (UniProt O43310)
T1 sequence: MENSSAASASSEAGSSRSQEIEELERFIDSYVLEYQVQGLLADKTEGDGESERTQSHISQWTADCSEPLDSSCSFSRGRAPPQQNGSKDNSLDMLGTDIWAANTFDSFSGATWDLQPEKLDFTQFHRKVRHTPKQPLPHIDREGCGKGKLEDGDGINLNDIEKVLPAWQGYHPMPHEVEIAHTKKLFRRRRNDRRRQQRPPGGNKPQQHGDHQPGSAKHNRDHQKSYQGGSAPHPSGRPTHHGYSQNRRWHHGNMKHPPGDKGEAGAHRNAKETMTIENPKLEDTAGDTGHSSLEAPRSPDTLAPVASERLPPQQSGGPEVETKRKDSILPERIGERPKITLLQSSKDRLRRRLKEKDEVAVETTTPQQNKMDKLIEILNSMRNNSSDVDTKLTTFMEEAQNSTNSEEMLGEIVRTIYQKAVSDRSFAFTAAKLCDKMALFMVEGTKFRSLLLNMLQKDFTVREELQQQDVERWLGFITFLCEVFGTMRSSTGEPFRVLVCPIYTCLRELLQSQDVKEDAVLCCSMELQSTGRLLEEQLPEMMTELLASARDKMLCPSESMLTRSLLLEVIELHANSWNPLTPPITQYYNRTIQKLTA
Test: affinity purification with mass spectrometry; immunoprecipitate of FLAG-CTIF-WT from HEK293T cells, SDS-PAGE, silver staining, bands excised, LC-MS/MS

binding: binds
Substance: eukaryotic translation elongation factor 1 alpha 1 (eEF1A1), endogenous (from UniProt P68104 1-462)
